Reference: patent US20210154208A1, “Method to Identify Agents That Can Overcome Inhibition Caused By Drug-protein Binding of the Human Plasma Protein, Alpha-1-acid Glycoprotein” (The Johns Hopkins University, priority 2019, published 2021)

Test system: MOLM-14 cells
Test: Modified PIA, MTT proliferation with purified human AGP
Type: cell-based
Details: MOLM-14, purified AGP at physiologic concentrations
Experimental: In the original plasma inhibitory assay (PIA), FLT3/ITD-expressing cells are co-incubated with plasma samples from patients receiving a FLT3 TKI, and Western blotting analysis of FLT3 auto-phosphorylation is used to measure the extent of FLT3 inhibitory activity present in their plasma.(9) This can then be compared to total plasma drug levels to determine the relative efficacy of a drug in vivo compared to its activity in vitro. […] To model these effects in the pre-clinical setting, we modified the PIA assay. Whereas the PIA was designed to assess in vivo drug activity with regards to a specific target (e.g.: inhibition of FLT3 auto-phosphorylation by TKI), the modified PIA is similarly cell-based, but measures the clinically relevant biological end-points of cytotoxicity and proliferation inhibition, instead of target inhibition. In the modified assay, FLT3/ITD cell lines are cultured in the presence of human plasma or purified human plasma proteins and treated with a range of concentrations of the drug of interest. […] Furthermore, like the original PIA, Western blot analysis can be performed on cells treated in this manner to study specific pathways of interest (FIG. 1B). […] The modified PIA utilizes the general endpoint of cytotoxicity. […]

fold inhibition by AGP (fold-change in IC50): 300 fold
Structure (SMILES): CO[C@@H]1[C@H](N(C)C(=O)c2ccccc2)C[C@H]2O[C@]1(C)n1c3ccccc3c3c4c(c5c6ccccc6n2c5c31)C(=O)NC4 [midostaurin]
